{"source": "PubChem BioAssay AID1259308 (NCATS, 2017)", "screen": "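Knock-downs that increase output of a recombinant reporter protein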 (primary screen)", "cell system": "human HEK293 embryonic kidney cells stably expressing firefly luciferase (HEK-CMV-Luc2-Hygro)", "reagent": "single siRNA against human genes, 0.8 pmol siRNA per well", "time to read-out": "72 h", "measurement": "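Luciferase light (ONE-Glo) measured on one replicate plate set and viability (CellTiter-Glo) on the other, scaled to a negative control siRNA, with robust z-scores and luciferase per cell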", "reading the numbers": "total luciferase, z-score and total luciferase, % of control: higher = more reporter protein produced", "rule for the call": "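Active when the median/MAD z-score for overall luciferase is greater than 3; a gene was taken forward for validation with new siRNAs if at least two of its three siRNAs passed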", "meaning of the calls": "active = raised luciferase; inactive = no rise", "note": "The whole screen tested about 59,000 reagents; this is an unselected part. About 1,510 of them (2.6%) count as active. 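Calls use total luciferase alone and ignore viability, so some active siRNAs may act by altering cell number.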 Entries without a mark were called inactive. Not all columns of the deposit are shown."}
{"gene knocked down": "KCNV2", "PubChem SID": "SID160760350", "total luciferase, z-score": -0.341, "total luciferase, % of control": 75.1}
{"gene knocked down": "KCNV2", "PubChem SID": "SID160760351", "total luciferase, z-score": -0.364, "total luciferase, % of control": 74.6}
{"gene knocked down": "KCNV2", "PubChem SID": "SID160760352", "total luciferase, z-score": -0.94, "total luciferase, % of control": 63.2}
{"gene knocked down": "UBE2D4", "PubChem SID": "SID160731385", "total luciferase, z-score": 0.687, "total luciferase, % of control": 95.5}
{"gene knocked down": "UBE2D4", "PubChem SID": "SID160741103", "total luciferase, z-score": -1.74, "total luciferase, % of control": 47.3}
{"gene knocked down": "UBE2D4", "PubChem SID": "SID160741105", "total luciferase, z-score": 0.547, "total luciferase, % of control": 92.8}

Continued, starting with the last 2 of the part before.
{"gene knocked down": "UBE2D4", "PubChem SID": "SID160741103", "total luciferase, z-score": -1.74, "total luciferase, % of control": 47.3}
{"gene knocked down": "UBE2D4", "PubChem SID": "SID160741105", "total luciferase, z-score": 0.547, "total luciferase, % of control": 92.8}
{"gene knocked down": "ULK1", "PubChem SID": "SID160719982", "total luciferase, z-score": 0.149, "total luciferase, % of control": 84.8}
{"gene knocked down": "ULK1", "PubChem SID": "SID160719983", "total luciferase, z-score": -2.29, "total luciferase, % of control": 36.3}
{"gene knocked down": "ULK1", "PubChem SID": "SID160719984", "total luciferase, z-score": 0.68, "total luciferase, % of control": 95.4}
{"gene knocked down": "WDR7", "PubChem SID": "SID160736042", "total luciferase, z-score": -0.0552, "total luciferase, % of control": 80.8}
{"gene knocked down": "WDR7", "PubChem SID": "SID160736043", "total luciferase, z-score": -2.18, "total luciferase, % of control": 38.6}
{"gene knocked down": "WDR7", "PubChem SID": "SID160736044", "total luciferase, z-score": -0.214, "total luciferase, % of control": 77.6}
